Source: patent US11851410B2, “Sensors for detection of negatively charged phosphate-containing membranes and membrane components” (THE GOVERNING COUNCIL OF THE UNIVERSITY OF TORONTO, priority 2017, dated 2023)
For at least one compound, name, drawing or mass did not settle the structure.

Columns and labels:
Type in all cases: binding
Details in all cases: sensor 25 μM (PSVue™380 1 μM), 50 mM HEPES, 5% DMSO, pH 7.5
[1] = system: TOCL (CL) negatively charged vesicles; assay: Serial dilution vesicle fluorescence intensity experiments, CL vesicles; parameters: unit not given here
Description: (§1) The following equations were used for the calculations: […]

[2] = system: DOPS (PS) negatively charged vesicles; assay: Serial dilution vesicle fluorescence intensity experiments, PS vesicles; parameters: unit not given here
[3] = system: DOPS (PS) negatively charged vesicles; assay: as above; parameters: unit not given here; remark: listed apart in the source
Description: as §1
It is estimated that a mammalian cell membrane is composed of 10% PS, with the majority located on the inner leaflet in the healthy state. However, during the early stages of apoptosis, this asymmetry is lost and PS becomes symmetrically distributed resulting in ˜5% of PS externalized to the outer leaflet. To address if compounds of this application could potentially be used for the detection of the PS externalization event during apoptosis, the exemplary sensors were screened against PC vesicles containing biologically-relevant levels of PS ([…]; assuming that approximately half of the lipid head groups will be exposed to the interior of the vesicle). The resulting ΔΔFI for vesicle concentrations up to 40 μM are presented in FIG. 7 and Table 1 (ΔΔFI for vesicle concentrations up to 200 μM is presented in FIG. 4).

[4] = system: POPE (PE) zwitterionic vesicles; assay: Serial dilution vesicle fluorescence intensity experiments, PE vesicles
Description: as §1

[5] = system: POPG (PG) negatively charged vesicles; assay: Serial dilution vesicle fluorescence intensity experiments, PG vesicles
Description: as §1

[6] = system: POPA (PA) negatively charged vesicles; assay: Serial dilution vesicle fluorescence intensity experiments, PA vesicles
Description: as §1

Question: What does the source list for `[Zn+2].[Zn+2].c1ccc(CN(Cc2ccccn2)Cc2c3ccccc3c(CN(Cc3ccccn3)Cc3ccccn3)c3ccccc23)nc1` [PSVue™380, reference compound]?
Answer: ΔΔFI ([1]; 33% CL vesicles, 5 μM vesicles): 5.3; ΔΔFI ([1]; 33% CL vesicles, 20 μM vesicles): 15.4; ΔΔFI ([1]; CL vesicles (50%), 5 μM vesicles): 10.3; ΔΔFI ([1]; CL vesicles (50%), 20 μM vesicles): 15.3; ΔΔFI ([2]; 75% PS vesicles, 5 μM vesicles): 6.1; ΔΔFI ([2]; 75% PS vesicles, 20 μM vesicles): 17.4; ΔΔFI ([2]; PS vesicles (50%), 5 μM vesicles): 4; ΔΔFI ([2]; PS vesicles (50%), 20 μM vesicles): 16; ΔΔFI ([3]; 5% PS vesicles, 5 μM vesicles): 2.6; ΔΔFI ([3]; 5% PS vesicles, 20 μM vesicles): 7.4; ΔΔFI ([3]; 25% PS vesicles, 5 μM vesicles): 3.3; ΔΔFI ([3]; 25% PS vesicles, 20 μM vesicles): 10.8; ΔΔFI ([4]; 5 μM vesicles): 1.1; ΔΔFI ([4]; 20 μM vesicles): 1.1; ΔΔFI ([5]; 5 μM vesicles): 3.9; ΔΔFI ([5]; 20 μM vesicles): 10.2; ΔΔFI ([6]; 5 μM vesicles): 4.9; ΔΔFI ([6]; 20 μM vesicles): 11.4
